Experimental data reported in article PMC7862700.
The list shows a part of the results, in another mix than the full data. For some assays here: At the low end of the ranking, values are background and their order means little. The list shows a part of the results. For some assays here: The exact form of the protein is not confirmed.

The chains behind the UniProt entries cited, without tags or fusion partners. Where a name states a change or a piece, a line headed by the entry shows the natural chain unless it says otherwise.
UniProt P32519: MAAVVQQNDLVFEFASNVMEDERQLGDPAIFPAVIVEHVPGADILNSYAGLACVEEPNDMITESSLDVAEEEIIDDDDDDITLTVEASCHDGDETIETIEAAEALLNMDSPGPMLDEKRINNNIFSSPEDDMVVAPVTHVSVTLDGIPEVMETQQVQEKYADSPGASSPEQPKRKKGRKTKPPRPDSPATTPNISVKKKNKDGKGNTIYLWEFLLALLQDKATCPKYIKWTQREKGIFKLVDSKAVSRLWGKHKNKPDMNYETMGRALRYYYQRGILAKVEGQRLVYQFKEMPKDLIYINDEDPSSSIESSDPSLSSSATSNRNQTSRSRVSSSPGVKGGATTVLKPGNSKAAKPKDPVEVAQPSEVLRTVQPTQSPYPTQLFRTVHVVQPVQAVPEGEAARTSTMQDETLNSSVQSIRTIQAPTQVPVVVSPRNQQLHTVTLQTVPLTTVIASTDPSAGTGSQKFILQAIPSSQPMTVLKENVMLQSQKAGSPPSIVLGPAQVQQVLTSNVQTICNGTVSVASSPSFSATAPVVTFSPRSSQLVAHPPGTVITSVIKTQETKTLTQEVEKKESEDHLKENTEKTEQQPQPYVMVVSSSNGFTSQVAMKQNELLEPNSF
UniProt P50549: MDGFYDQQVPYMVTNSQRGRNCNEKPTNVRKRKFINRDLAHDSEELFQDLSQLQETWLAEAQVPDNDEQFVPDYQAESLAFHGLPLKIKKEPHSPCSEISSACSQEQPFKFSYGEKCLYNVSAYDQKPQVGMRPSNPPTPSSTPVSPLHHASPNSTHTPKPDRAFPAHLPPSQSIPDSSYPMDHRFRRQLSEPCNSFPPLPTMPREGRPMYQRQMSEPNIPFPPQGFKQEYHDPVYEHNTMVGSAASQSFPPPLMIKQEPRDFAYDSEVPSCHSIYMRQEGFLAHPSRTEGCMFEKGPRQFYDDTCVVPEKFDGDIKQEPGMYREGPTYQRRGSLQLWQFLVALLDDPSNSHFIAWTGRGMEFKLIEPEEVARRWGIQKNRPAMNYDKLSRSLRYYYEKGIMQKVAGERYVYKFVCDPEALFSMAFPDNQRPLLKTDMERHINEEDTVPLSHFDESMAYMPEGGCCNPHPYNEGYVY

The sequences below were run against T1, ERG (UniProt P11308) (assay: DAPPL (digital affinity profiling via proximity ligation, sequencing)). Settings: 10 mM Tris-HCl pH 7.5, 50 mM NaCl, 1 mM DTT, 4% glycerol, room temperature, 30 min; GST-TFs on glutathione beads, 16-mer random dsDNA library, 0.1% …; high values mean tight binding; double strand, one strand shown; scale: fold enrichment (6-mer frequency, TF over GST control).
T1 sequence: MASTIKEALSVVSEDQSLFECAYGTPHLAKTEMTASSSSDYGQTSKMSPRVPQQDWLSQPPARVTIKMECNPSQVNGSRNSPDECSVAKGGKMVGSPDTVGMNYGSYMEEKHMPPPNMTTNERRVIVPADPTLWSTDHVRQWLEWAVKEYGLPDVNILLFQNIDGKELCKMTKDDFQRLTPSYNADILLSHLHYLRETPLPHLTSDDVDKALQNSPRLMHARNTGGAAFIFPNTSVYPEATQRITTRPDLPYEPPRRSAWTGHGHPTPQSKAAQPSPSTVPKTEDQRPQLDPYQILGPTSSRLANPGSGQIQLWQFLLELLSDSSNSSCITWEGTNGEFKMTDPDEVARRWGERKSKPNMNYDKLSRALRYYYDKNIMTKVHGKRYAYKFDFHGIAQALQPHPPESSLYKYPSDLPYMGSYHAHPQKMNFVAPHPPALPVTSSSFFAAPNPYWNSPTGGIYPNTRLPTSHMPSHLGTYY

| Sequence | binding signal |
| --- | --- |
| CTTCGG | 1.35 |
| TTTTTA | 1.25 |
| CTGATA | 1.1 |
| ATACAG | 1.16 |
| TTGGGT | 0.965 |
| TACTGA | 1.03 |
| ATGCAC | 1.2 |
| CTAGCT | 1.3 |
| CTGCCT | 1.18 |
| ATCTCT | 1.17 |
| TTCAGT | 1.03 |
| ATATGC | 1.13 |
| CCTAGA | 0.951 |
| AAAAGT | 0.998 |
| CACTTA | 1.22 |
| CATCGA | 0.998 |
| TTATGA | 1.08 |
| GATTCT | 1.21 |
| TTGACA | 1.34 |
| GGCCCC | 1.04 |

| Sequence | binding signal |
| --- | --- |
| AATAGC | 1.12 |
| GCTGAT | 1.1 |
| CGATGA | 0.985 |
| TGTAAT | 1.2 |
| TGGCCT | 1.54 |
| CTTGGT | 1.42 |
| GCTTAG | 1.18 |
| AAAGGT | 0.971 |
| TTACGA | 1.06 |
| TAAAAC | 1.18 |
| TGAAAA | 0.953 |
| ATGTAA | 1.29 |
| ATTTAC | 1.27 |
| TGGCTT | 1.31 |
| CAGAAT | 0.99 |
| TTGCAT | 1.37 |
| TCGCTT | 1.18 |
| GAATTC | 1.36 |
| ACATTG | 1.07 |
| CGAAAA | 1.06 |

Each sequence was assayed against ELF1 (UniProt P32519) in the same assay as above. Settings: 10 mM Tris-HCl pH 7.5, 50 mM NaCl, 1 mM DTT, 4% glycerol, room temperature, 30 min; GST-TFs on glutathione beads, 16-mer random dsDNA library, 0.1% …; high values mean tight binding; double strand, one strand shown; scale: fold enrichment (6-mer frequency, TF over GST control).

| Sequence | binding signal |
| --- | --- |
| CTGATA | 1.21 |
| TACTGA | 1.13 |
| CACTTA | 1.27 |
| TGGCCT | 1.48 |
| CGAAAA | 1.05 |

Each sequence was assayed against T2, ETV4 (UniProt P43268) in the same assay as above. Settings: 10 mM Tris-HCl pH 7.5, 50 mM NaCl, 1 mM DTT, 4% glycerol, room temperature, 30 min; GST-TFs on glutathione beads, 16-mer random dsDNA library, 0.1% …; high values mean tight binding; double strand, one strand shown; scale: fold enrichment (6-mer frequency, TF over GST control).
T2 sequence: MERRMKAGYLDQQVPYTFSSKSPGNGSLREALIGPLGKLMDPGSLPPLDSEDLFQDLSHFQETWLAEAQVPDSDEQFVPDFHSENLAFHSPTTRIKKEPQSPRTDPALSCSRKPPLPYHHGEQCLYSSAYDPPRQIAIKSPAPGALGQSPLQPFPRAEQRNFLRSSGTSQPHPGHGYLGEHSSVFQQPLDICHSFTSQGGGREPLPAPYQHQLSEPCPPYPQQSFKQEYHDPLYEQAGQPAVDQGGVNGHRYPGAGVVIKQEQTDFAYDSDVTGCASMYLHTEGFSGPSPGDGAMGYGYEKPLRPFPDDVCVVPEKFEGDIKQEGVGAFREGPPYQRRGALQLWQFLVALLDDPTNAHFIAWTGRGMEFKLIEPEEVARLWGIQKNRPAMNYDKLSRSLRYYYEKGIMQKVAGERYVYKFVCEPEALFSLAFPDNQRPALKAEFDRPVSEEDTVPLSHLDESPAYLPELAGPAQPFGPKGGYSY

| Sequence | binding signal |
| --- | --- |
| CTTCGG | 1.62 |
| TTTTTA | 1.19 |
| CTGATA | 1.14 |
| ATACAG | 1.1 |
| TTGGGT | 1.14 |
| TACTGA | 1.06 |
| ATGCAC | 1.39 |
| CTAGCT | 1.23 |
| CTGCCT | 1.26 |
| ATCTCT | 1.36 |
| TTCAGT | 1.12 |
| ATATGC | 1.14 |
| CCTAGA | 0.978 |
| AAAAGT | 1.06 |
| CACTTA | 1.28 |
| CATCGA | 1.07 |
| TTATGA | 1.18 |
| GATTCT | 1.2 |
| TTGACA | 1.32 |
| GGCCCC | 1.03 |

| Sequence | binding signal |
| --- | --- |
| AATAGC | 1.13 |
| GCTGAT | 1.13 |
| CGATGA | 1.04 |
| TGTAAT | 1.17 |
| TGGCCT | 1.47 |
| CTTGGT | 1.47 |
| GCTTAG | 1.13 |
| AAAGGT | 1.03 |
| TTACGA | 1.11 |
| TAAAAC | 1.25 |
| TGAAAA | 1.02 |
| ATGTAA | 1.28 |
| ATTTAC | 1.29 |
| TGGCTT | 1.29 |
| CAGAAT | 0.973 |
| TTGCAT | 1.47 |
| TCGCTT | 1.22 |
| GAATTC | 1.36 |
| ACATTG | 1.09 |
| CGAAAA | 1.09 |

Each sequence was assayed against ETV1 (UniProt P50549) in the same assay as above. Settings: 10 mM Tris-HCl pH 7.5, 50 mM NaCl, 1 mM DTT, 4% glycerol, room temperature, 30 min; GST-TFs on glutathione beads, 16-mer random dsDNA library, 0.1% …; high values mean tight binding; double strand, one strand shown; scale: fold enrichment (6-mer frequency, TF over GST control).

| Sequence | binding signal |
| --- | --- |
| CTTCGG | 1.72 |
| TTTTTA | 1.32 |
| CTGATA | 1.13 |
| ATACAG | 1.11 |
| TTGGGT | 1.06 |
| TACTGA | 1.02 |
| ATGCAC | 1.19 |
| CTAGCT | 1.24 |
| CTGCCT | 1.24 |
| ATCTCT | 1.23 |
| TTCAGT | 1.07 |
| ATATGC | 1.11 |
| CCTAGA | 0.982 |
| AAAAGT | 1.13 |
| CACTTA | 1.25 |
| CATCGA | 1.05 |
| TTATGA | 1.17 |
| GATTCT | 1.25 |
| TTGACA | 1.33 |
| GGCCCC | 1.03 |

| Sequence | binding signal |
| --- | --- |
| AATAGC | 1.13 |
| GCTGAT | 1.2 |
| CGATGA | 0.965 |
| TGTAAT | 1.17 |
| TGGCCT | 1.27 |
| CTTGGT | 1.53 |
| GCTTAG | 1.27 |
| AAAGGT | 0.982 |
| TTACGA | 1.16 |
| TAAAAC | 1.18 |
| TGAAAA | 1.01 |
| ATGTAA | 1.27 |
| ATTTAC | 1.22 |
| TGGCTT | 1.1 |
| CAGAAT | 1.04 |
| TTGCAT | 1.5 |
| TCGCTT | 1.24 |
| GAATTC | 1.34 |
| ACATTG | 1.19 |
| CGAAAA | 1.06 |
